Library screening results

The values are deposited in ChEMBL (CHEMBL3988442, “University of Dundee, Small-Polar-MMV Screening Library” (2021)).

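Viability assay of Plasmodium falciparum sporozoites; the read-out is not stated. The concentration is filed as 10 mM, unlikely as a test dose, so the dose is not known. The record gives no direction; compounds that gave an IC50 in retests scored well above the rest, so higher reads as lower viability. Strong results were mostly tested again. Of about 34,000 compounds tested this way, about 280 (0.84%) reached 50% or more in at least one test.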

Each number is a percent effect as filed. The record does not define 0% and 100%; most values in the screen are far below 50% and negative numbers occur (in some assays of this library far below -100). The compounds are a random part of those screened. Two or more numbers in one place are separate tests of the same structure; such repeats can differ widely.

- O=C1CC(c2ccc(C(=O)O)cc2)c2ncn(-c3cccc(F)c3)c2N1 (centres undefined) : -1.535%
- CC(Cn1cccn1)NCC(=O)NC1(C#N)CCCCC1 (centres undefined) : 1.599%
- CCn1nc2c(cc1=O)CN(Cc1cc(C)on1)CC2 : -7.929%
- Cn1cnc2c1CCN(Cc1csc(C3CCCC3)n1)C2 : -10.94%
- O=C(O)C(F)(F)F.O=C(O)C(F)(F)F.[H][C@@]12C[C@@H](OCc3ccccc3)CN1CCN(C(=O)c1cccnc1)C2 : 16.75%
- Cc1ccc(CN2CCc3c(C(=O)N(C)C)n[nH]c3C2)o1 : 5.304%
- CN(C)Cc1cccc(-c2cccnc2C(=O)NCc2ccco2)c1 : 9.753%
- Cc1cc(C(=O)N2CC[C@@H](O)[C@@H]2Cc2ccccc2)no1 : 9.37%
- CCOc1c(OC)cc(/C=C/c2ncc(C(=O)NC)s2)cc1OC : -6.696%
- O=C(O)C(F)(F)F.[H][C@@]12CCN(c3ncccn3)[C@@]1([H])CCN2C(=O)N1CCCC1 : 2.014%
- Cc1oc(C)c(C(=O)NCc2cccc(NC(=O)CN(C)C)c2)c1C : -22.67%
- CCCC(O)CN1CCC(=O)N(C)Cc2cc(F)ccc21 (centres undefined) : -29.7%
- CCCc1c(C(=O)N2CCN(Cc3ccccn3)CC2)cnn1C : 15.26%
- COc1ccc(C(=O)N2CCCC(C)C2)cc1F (centres undefined) : 8.64%
- COc1ccc(Cl)cc1CC(=O)NS(=O)(=O)c1ccc(C(N)=O)cc1 : 0.1705%
- Cc1nc(N2CCN(C(=O)c3ccccc3)CC2)c2c(n1)c(C)nn2C : -0.8772%
- [H][C@@]12CN(C(=O)C3CCOC3)C[C@@]1([H])N(CC(C)C)C(=O)CO2 (some centres undefined) : -25.83% & 8.418% & -24.73%
- CC(C)(C)CN1Cc2cc3c(cc2NCCC1=O)OCO3 : -1.818%
- C1CN(Cc2noc(C3CC3)n2)CCN(Cc2nnc(C3CC3)o2)C1 : 5.849%
- Cc1nc(C2CCN(Cc3ncc[nH]3)CC2)no1.O=CO : 13.01%
- CN1CCOC(CN(C(=O)CCc2ccco2)c2nccs2)C1 (centres undefined) : 24.69%
- OC(CN1CCOCC1)CN1CCc2c(ncn2C2CC2)C1 (centres undefined) : 17.16%
- Cc1cnc(N2CC3(CCN(Cc4cccnc4)C3)C2)nc1.O=C(O)C(F)(F)F.O=C(O)C(F)(F)F : 9.194%
- CC(C(=O)NCCOc1ccc(F)cc1)n1cncn1 (centres undefined) : 12.45%
- Cn1ncc2c(NC3CN4CCC3CC4)nc(-c3ccncc3)nc21 (centres undefined) : 7.007%
- O=C(NC(Cc1ccsc1)c1nccs1)C1CC1 (centres undefined) : 10.73%
- CCc1nc2n(n1)CC(NCC(=O)Nc1nccs1)CC2 (centres undefined) : 12.42%
- CN1CC2(CCCCN2C(=O)c2ccsc2)CC1=O (centres undefined) : 6.859%
- [H][C@@]12CCN(Cc3cnn(C)c3)C[C@@]1([H])[C@H](C(=O)N1CCCCO1)CCO2 : -7.237%
- Cc1cccc(Cn2cc(C)c(N)n2)c1 : 32.19% & 42.01% & 18%
- O=C(O)C(F)(F)F.O=C(O)C(F)(F)F.c1cn2c(n1)CN(CC1CC1)CC(CN1CCOCC1)C2 (centres undefined) : 3.915%
- COC(=O)CNC(=O)N1CCC2(CC1)CC(c1ccccc1)CN(C)C2 (centres undefined) : -2.756%
- Cc1cc(F)ccc1CNCc1cccc(C(=O)N2CCCC2)c1 : 1.688%
- CNC(=O)CN1CCC(OCC2CCCO2)CC1 (centres undefined) : 6.91%

3 of the entries, repeated:

For CC(C)(C)CN1Cc2cc3c(cc2NCCC1=O)OCO3 the result was -1.818%.
For CC(Cn1cccn1)NCC(=O)NC1(C#N)CCCCC1 (centres undefined) the result was 1.599%.
For CN1CC2(CCCCN2C(=O)c2ccsc2)CC1=O (centres undefined) the result was 6.859%.